Measurements reported in PubChem BioAssay AID1259308 (NCATS, 2017)
Here is a random part of about 59,000 reagents tested. About 1,510 of them (2.6%) were called active. 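Calls use total luciferase alone and ignore viability, so some active siRNAs may act by altering cell number.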 Not all columns of the deposit are shown.

Purpose: 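Candidate targets for better recombinant protein yield in mammalian cells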 (primary screen)
Cell system: human HEK293 embryonic kidney cells stably expressing firefly luciferase (HEK-CMV-Luc2-Hygro)
Reagents: single siRNA against human genes, 0.8 pmol siRNA per well
Time to read-out: 72 h
Read-out: 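Luciferase light (ONE-Glo) measured on one replicate plate set and viability (CellTiter-Glo) on the other, scaled to a negative control siRNA, with robust z-scores and luciferase per cell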
Reading the numbers: total luciferase, z-score and total luciferase, % of control: higher = more reporter protein produced; luciferase per cell, z-score: higher = more reporter output per viable cell
Rule for the call: 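Active when the median/MAD z-score for overall luciferase is greater than 3; a gene was taken forward for validation with new siRNAs if at least two of its three siRNAs passed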
Calls: active = raised luciferase; inactive = no rise

| gene | PubChem SID | total luciferase, z-score | total luciferase, % of control | luciferase per cell, z-score | activity call |
| --- | --- | --- | --- | --- | --- |
| SMCP | SID160777069 | -0.58 | 70.3 | -0.177 | inactive |
| SMCP | SID160777070 | 0.204 | 85.9 | -0.614 | inactive |
| SMCP | SID160777071 | -1.05 | 61 | -1.04 | inactive |
| SEC14L5 | SID160722891 | -0.142 | 79.1 | 0.82 | inactive |
| SEC14L5 | SID160722892 | 1.5 | 112 | 1.46 | inactive |
| SEC14L5 | SID160722894 | -0.611 | 69.7 | -1.04 | inactive |
| CLEC1A | SID160740454 | 3.75 | 157 | 3.14 | active |
| CLEC1A | SID160740455 | 1.1 | 104 | 0.506 | inactive |
| CLEC1A | SID160740456 | 0.558 | 93 | 0.419 | inactive |
| ARMC2 | SID160751673 | 0.364 | 89.1 | 1.1 | inactive |
| ARMC2 | SID160751674 | 1.1 | 104 | 1.19 | inactive |
| ARMC2 | SID160751675 | 1.96 | 121 | 2.23 | inactive |
| PTRH1 | SID160724820 | 0.267 | 87.2 | 0.27 | inactive |
| PTRH1 | SID160724821 | -0.75 | 67 | -1.36 | inactive |
| PTRH1 | SID160757596 | 1.48 | 111 | 0.782 | inactive |
| NAPEPLD | SID160761837 | 0.813 | 98 | -0.237 | inactive |
| NAPEPLD | SID160761838 | -0.124 | 79.4 | -0.522 | inactive |
| NAPEPLD | SID160761839 | 1.65 | 115 | 0.718 | inactive |
| L1CAM | SID160776470 | 1.08 | 103 | 0.498 | inactive |
| L1CAM | SID160776471 | 0.718 | 96.2 | 0.377 | inactive |
| L1CAM | SID160776472 | -0.0467 | 81 | -0.389 | inactive |
| DAP3 | SID160719377 | 0.194 | 85.8 | -0.176 | inactive |
| DAP3 | SID160719379 | -0.369 | 74.5 | -0.314 | inactive |
| DAP3 | SID160719380 | -1.85 | 45 | -1.78 | inactive |
| QTGAL | SID160730646 | 0.676 | 95.3 | -0.129 | inactive |
| QTGAL | SID160758394 | -1.02 | 61.7 | -1.03 | inactive |
| QTGAL | SID160758396 | -0.0656 | 80.6 | -0.51 | inactive |
| L3MBTL3 | SID160752287 | 1.15 | 105 | 0.705 | inactive |
| L3MBTL3 | SID160752288 | -0.442 | 73.1 | -0.839 | inactive |
| L3MBTL3 | SID160752289 | 0.0202 | 82.3 | -0.476 | inactive |
| ADGRE2 | SID160739520 | -0.0657 | 80.6 | 0.882 | inactive |
| ADGRE2 | SID160739521 | 0.287 | 87.6 | -0.269 | inactive |
| ADGRE2 | SID160739522 | 0.482 | 91.5 | -0.179 | inactive |
| UNC5A | SID160753616 | 0.291 | 87.7 | 0.125 | inactive |
| UNC5A | SID160753617 | 0.66 | 95 | 0.151 | inactive |
| UNC5A | SID160753618 | -0.321 | 75.5 | -1.15 | inactive |
| ENG | SID160760368 | 3.13 | 144 | 1.96 | active |
| ENG | SID160760378 | 0.0988 | 83.9 | -0.24 | inactive |
| ENG | SID160760389 | 1.36 | 109 | 0.877 | inactive |

Next part (9 carried over from the part before).
| gene | PubChem SID | total luciferase, z-score | total luciferase, % of control | luciferase per cell, z-score | activity call |
| --- | --- | --- | --- | --- | --- |
| ADGRE2 | SID160739520 | -0.0657 | 80.6 | 0.882 | inactive |
| ADGRE2 | SID160739521 | 0.287 | 87.6 | -0.269 | inactive |
| ADGRE2 | SID160739522 | 0.482 | 91.5 | -0.179 | inactive |
| UNC5A | SID160753616 | 0.291 | 87.7 | 0.125 | inactive |
| UNC5A | SID160753617 | 0.66 | 95 | 0.151 | inactive |
| UNC5A | SID160753618 | -0.321 | 75.5 | -1.15 | inactive |
| ENG | SID160760368 | 3.13 | 144 | 1.96 | active |
| ENG | SID160760378 | 0.0988 | 83.9 | -0.24 | inactive |
| ENG | SID160760389 | 1.36 | 109 | 0.877 | inactive |
| WNT7A | SID160718842 | 2.16 | 125 | 1.76 | inactive |
| WNT7A | SID160718843 | 0.897 | 99.7 | 1.54 | inactive |
| WNT7A | SID160718844 | -0.992 | 62.2 | -0.00654 | inactive |
| DNAJC15 | SID160739072 | 0.0497 | 82.9 | -0.368 | inactive |
| DNAJC15 | SID160739073 | 0.26 | 87.1 | 0.807 | inactive |
| DNAJC15 | SID160739074 | -0.71 | 67.8 | -0.89 | inactive |
| SERPINA13P | SID160731177 | 2.02 | 122 | 1.56 | inactive |
| SERPINA13P | SID160765754 | -0.725 | 67.5 | -1.21 | inactive |
| SERPINA13P | SID160765755 | -2.69 | 28.5 | -3.67 | inactive |
| CNOT9 | SID160721528 | -0.962 | 62.8 | -0.935 | inactive |
| CNOT9 | SID160721529 | 0.658 | 95 | 0.579 | inactive |
| CNOT9 | SID160721530 | -0.285 | 76.2 | -0.47 | inactive |
| DCLRE1C | SID160747762 | 0.288 | 87.6 | 0.548 | inactive |
| DCLRE1C | SID160747763 | -1.79 | 46.2 | -2.18 | inactive |
| DCLRE1C | SID160747765 | 0.0909 | 83.7 | 0.153 | inactive |
| EMC3 | SID160744472 | -0.586 | 70.2 | 0.277 | inactive |
| EMC3 | SID160744473 | -0.821 | 65.6 | -1.08 | inactive |
| EMC3 | SID160744474 | -1.25 | 57 | -0.688 | inactive |
| ANAPC15 | SID160737225 | 0.411 | 90.1 | -0.474 | inactive |
| ANAPC15 | SID160737226 | 1.01 | 102 | 0.31 | inactive |
| ANAPC15 | SID160737227 | -0.273 | 76.5 | -0.646 | inactive |
| PAK1 | SID160713805 | 0.643 | 94.7 | 0.659 | inactive |
| PAK1 | SID160713807 | -0.339 | 75.2 | -0.416 | inactive |
| PAK1 | SID160713808 | -0.458 | 72.8 | -0.744 | inactive |
| LOC645188 | SID160769462 | -0.831 | 65.4 | 1.78 | inactive |
| LOC645188 | SID160769463 | -1.26 | 56.8 | -1.18 | inactive |
| LOC645188 | SID160769464 | -1.36 | 54.9 | -0.43 | inactive |
| PTTG2 | SID160729136 | -0.957 | 62.9 | -0.758 | inactive |
| PTTG2 | SID160729137 | -0.17 | 78.5 | -0.241 | inactive |
| PTTG2 | SID160729138 | 0.418 | 90.2 | 0.28 | inactive |
| MAF | SID160723918 | -1.05 | 61.1 | -0.952 | inactive |
| MAF | SID160731212 | 0.34 | 88.6 | 0.0735 | inactive |
| MAF | SID160731213 | 1.95 | 121 | 2.07 | inactive |
| PRSS56 | SID160725993 | -0.0766 | 80.4 | -0.0914 | inactive |
| PRSS56 | SID160725994 | 2.15 | 125 | 1.09 | inactive |
| PRSS56 | SID160770077 | -0.286 | 76.2 | 0.392 | inactive |
